In the supplement of paper PMC10849652:
This is one part of the list.

Chains of the proteins cited; added tags and fusions are not shown. Lines headed by an entry give the natural chain unless they say otherwise; changes in a name come on top.
UniProt Q9NWZ8: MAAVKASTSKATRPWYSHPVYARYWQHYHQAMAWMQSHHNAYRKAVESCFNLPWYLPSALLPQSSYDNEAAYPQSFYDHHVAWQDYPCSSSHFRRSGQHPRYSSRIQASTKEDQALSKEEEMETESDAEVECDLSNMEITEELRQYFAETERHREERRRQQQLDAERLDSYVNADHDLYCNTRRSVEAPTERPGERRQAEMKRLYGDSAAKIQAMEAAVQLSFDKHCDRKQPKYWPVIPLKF
UniProt Q99988: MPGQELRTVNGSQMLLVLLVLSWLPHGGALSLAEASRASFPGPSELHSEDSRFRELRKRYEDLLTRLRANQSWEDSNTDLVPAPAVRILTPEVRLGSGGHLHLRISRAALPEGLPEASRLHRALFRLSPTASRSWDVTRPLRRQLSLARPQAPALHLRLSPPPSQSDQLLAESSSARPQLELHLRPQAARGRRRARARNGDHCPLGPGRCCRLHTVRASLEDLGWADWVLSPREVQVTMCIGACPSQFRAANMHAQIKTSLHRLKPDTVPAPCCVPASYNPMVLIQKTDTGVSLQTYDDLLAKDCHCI
UniProt Q9BZ67: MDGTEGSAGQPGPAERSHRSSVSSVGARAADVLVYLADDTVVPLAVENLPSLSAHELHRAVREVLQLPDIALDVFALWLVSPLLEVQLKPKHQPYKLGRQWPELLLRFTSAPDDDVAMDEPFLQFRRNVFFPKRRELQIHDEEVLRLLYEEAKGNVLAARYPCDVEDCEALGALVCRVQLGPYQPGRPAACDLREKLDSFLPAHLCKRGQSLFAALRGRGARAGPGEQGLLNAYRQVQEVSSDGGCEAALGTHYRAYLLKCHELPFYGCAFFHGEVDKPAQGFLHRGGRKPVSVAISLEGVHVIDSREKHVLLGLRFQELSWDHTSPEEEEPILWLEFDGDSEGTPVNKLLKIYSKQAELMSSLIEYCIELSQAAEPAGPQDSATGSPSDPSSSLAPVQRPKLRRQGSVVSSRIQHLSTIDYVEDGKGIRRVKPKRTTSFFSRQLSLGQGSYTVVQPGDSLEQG
UniProt Q9BUM1: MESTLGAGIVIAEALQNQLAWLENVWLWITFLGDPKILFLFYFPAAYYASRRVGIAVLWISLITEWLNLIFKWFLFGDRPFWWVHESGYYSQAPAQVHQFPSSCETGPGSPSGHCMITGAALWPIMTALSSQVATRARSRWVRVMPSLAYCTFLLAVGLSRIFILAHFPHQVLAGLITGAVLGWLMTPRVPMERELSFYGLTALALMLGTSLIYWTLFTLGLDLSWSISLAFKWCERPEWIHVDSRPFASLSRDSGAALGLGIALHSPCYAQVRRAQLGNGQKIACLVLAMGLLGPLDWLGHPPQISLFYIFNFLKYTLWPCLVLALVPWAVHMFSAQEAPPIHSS
UniProt Q6ZNW5: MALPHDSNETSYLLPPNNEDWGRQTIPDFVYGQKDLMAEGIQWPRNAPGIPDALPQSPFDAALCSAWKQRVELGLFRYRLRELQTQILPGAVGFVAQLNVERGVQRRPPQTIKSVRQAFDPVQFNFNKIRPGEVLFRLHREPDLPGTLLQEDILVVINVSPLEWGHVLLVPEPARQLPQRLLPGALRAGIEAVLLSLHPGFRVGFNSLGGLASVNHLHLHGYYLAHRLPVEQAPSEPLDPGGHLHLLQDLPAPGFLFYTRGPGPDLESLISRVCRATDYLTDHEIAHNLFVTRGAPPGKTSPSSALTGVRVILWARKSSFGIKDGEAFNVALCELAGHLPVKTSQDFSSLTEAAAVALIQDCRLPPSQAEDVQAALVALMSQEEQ
UniProt Q96CN9: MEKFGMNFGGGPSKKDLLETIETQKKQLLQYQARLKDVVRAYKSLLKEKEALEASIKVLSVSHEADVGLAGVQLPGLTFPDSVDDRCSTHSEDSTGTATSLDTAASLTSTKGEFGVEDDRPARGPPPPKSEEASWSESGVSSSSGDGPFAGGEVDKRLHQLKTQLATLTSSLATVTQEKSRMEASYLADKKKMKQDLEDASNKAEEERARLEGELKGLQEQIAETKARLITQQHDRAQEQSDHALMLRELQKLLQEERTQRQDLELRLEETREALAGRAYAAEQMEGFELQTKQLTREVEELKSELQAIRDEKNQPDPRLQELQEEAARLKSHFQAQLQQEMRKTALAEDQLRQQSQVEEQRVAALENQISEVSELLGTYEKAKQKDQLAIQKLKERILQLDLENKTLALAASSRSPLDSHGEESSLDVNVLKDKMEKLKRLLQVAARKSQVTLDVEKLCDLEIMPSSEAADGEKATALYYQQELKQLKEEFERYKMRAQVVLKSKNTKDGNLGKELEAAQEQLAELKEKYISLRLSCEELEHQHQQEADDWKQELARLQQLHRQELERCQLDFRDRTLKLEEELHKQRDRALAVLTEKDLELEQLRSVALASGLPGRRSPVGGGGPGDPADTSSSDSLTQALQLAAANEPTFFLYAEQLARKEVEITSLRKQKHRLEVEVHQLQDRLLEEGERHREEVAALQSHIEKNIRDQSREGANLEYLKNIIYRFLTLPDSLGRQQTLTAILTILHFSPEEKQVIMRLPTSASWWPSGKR
UniProt P01275: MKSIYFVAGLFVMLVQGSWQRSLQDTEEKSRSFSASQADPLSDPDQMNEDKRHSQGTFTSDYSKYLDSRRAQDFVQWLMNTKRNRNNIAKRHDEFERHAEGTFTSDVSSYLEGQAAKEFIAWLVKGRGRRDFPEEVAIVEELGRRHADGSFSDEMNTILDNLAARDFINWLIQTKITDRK
UniProt Q06547, whole entry, looked up: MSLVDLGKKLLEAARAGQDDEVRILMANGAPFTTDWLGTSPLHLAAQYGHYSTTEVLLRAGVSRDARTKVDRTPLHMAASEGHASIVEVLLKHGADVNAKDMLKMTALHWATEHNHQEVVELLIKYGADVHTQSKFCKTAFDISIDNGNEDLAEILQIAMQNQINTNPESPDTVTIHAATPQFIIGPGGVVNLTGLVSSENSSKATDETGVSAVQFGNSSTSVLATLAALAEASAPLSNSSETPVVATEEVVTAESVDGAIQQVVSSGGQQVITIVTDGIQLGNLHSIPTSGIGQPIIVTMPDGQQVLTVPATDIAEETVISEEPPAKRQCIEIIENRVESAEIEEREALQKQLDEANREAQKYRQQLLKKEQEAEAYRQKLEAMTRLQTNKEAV
UniProt O94915: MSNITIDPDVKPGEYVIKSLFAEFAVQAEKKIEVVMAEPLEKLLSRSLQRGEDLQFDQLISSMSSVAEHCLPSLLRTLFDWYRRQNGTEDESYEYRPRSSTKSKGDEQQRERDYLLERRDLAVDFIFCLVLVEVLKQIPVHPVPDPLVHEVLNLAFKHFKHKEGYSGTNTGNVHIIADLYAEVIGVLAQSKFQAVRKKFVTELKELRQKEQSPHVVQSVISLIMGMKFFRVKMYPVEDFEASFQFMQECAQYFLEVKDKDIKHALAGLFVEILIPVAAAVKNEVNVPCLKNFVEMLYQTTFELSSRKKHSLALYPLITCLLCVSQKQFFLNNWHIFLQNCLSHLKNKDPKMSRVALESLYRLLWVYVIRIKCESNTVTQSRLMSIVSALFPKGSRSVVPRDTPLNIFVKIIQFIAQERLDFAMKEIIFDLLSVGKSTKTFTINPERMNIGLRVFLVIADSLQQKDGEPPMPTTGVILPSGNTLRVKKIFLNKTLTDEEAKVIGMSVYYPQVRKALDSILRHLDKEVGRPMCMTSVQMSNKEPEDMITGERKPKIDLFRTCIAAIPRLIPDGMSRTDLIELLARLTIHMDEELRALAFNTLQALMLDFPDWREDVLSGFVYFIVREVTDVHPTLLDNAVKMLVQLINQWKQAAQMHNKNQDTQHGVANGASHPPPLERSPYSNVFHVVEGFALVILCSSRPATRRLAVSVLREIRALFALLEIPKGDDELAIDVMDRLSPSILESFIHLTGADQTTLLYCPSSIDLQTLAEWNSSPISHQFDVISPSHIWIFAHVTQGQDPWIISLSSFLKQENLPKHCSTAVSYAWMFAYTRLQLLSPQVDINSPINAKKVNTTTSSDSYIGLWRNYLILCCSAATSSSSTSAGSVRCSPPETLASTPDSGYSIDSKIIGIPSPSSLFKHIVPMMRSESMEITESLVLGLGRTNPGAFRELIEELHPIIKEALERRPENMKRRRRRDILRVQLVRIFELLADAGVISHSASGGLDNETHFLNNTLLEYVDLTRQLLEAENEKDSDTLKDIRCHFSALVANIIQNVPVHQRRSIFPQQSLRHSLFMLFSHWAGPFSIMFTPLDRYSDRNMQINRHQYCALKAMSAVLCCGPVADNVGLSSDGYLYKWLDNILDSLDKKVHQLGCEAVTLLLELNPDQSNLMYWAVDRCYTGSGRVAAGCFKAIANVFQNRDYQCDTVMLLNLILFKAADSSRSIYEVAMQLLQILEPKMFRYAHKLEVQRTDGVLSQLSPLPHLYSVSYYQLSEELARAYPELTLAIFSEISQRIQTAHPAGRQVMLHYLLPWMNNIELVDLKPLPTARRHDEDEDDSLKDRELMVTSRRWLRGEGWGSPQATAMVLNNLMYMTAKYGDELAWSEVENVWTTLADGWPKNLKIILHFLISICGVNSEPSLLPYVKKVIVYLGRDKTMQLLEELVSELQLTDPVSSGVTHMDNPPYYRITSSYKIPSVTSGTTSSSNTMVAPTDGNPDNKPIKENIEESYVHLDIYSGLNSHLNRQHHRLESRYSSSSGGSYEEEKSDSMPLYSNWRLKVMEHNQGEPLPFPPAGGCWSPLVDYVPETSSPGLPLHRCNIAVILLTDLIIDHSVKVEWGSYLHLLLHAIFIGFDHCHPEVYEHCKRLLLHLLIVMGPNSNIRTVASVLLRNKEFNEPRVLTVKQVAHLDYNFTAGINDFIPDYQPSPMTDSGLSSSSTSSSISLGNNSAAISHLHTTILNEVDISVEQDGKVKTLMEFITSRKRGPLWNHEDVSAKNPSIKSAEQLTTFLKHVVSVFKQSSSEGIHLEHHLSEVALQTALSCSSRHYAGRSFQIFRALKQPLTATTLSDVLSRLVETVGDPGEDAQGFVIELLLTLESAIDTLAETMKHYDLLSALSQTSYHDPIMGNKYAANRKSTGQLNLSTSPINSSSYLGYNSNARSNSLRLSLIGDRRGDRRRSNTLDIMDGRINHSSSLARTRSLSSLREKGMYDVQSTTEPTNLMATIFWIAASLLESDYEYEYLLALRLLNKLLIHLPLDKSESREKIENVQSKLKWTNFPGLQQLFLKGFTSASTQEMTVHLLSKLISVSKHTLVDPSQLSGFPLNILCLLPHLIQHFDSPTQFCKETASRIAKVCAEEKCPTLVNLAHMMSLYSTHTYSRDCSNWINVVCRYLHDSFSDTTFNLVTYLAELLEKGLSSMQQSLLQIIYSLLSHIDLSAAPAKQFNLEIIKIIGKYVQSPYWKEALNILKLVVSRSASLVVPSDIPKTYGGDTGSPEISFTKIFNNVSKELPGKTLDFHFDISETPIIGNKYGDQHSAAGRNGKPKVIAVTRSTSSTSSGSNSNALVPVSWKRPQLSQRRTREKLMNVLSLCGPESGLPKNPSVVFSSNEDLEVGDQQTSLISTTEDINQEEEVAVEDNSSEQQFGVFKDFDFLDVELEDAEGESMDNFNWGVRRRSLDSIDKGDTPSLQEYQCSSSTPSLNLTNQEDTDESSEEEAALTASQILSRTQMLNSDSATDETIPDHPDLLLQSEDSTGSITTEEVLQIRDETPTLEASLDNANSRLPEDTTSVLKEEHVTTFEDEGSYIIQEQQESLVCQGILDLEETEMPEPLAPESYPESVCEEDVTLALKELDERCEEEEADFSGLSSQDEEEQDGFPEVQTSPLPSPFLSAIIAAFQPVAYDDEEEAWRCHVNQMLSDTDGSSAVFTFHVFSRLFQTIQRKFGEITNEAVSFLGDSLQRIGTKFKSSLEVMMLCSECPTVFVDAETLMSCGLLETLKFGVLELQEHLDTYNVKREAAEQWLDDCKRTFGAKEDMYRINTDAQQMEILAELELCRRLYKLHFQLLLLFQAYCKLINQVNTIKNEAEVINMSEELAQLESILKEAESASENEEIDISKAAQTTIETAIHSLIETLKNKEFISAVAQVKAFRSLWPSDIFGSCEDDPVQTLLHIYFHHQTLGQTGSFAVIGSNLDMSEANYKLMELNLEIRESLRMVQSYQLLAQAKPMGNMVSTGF
UniProt Q96QD9: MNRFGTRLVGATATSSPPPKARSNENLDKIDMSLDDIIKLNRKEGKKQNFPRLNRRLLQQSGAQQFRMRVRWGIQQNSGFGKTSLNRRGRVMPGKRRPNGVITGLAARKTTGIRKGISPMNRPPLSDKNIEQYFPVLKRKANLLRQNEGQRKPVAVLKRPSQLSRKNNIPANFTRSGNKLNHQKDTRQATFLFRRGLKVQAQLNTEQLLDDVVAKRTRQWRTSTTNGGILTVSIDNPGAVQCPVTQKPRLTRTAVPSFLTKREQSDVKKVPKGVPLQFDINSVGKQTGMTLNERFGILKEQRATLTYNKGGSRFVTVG
UniProt Q9H840: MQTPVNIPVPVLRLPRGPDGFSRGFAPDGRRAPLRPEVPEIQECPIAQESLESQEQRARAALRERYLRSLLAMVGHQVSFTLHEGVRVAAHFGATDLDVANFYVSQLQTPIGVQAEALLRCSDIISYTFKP

The targets below were run with Cc1nc(Nc2n[nH]c3c2CN(C(=O)N[C@H](CN(C)C)c2ccccc2)C3(C)C)c2sccc2n1 (assay: log2 fold change, soluble protein after heating vs DMSO (PISA); higher = thermal stabilisation; K562 cells, 10 uM, 30 min; active = over 0.2 and 3.5 SD of the protein, either way, in both replicates (recomputed)).
How it was run: (§1)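 K562 cells at 2×10^6 cells/mL were treated for 30 min with 10 μM compound, and aliquots were heated for 3 min over 48°C-58°C before pooling. Extraction used PBS with 0.5% NP-40 at 4°C, and soluble protein was the supernatant after 21,000xg for 90 min, measured by TMTpro 16plex LC-MS/MS with channel sums equalised. Thermal stability values, relative to control samples and from duplicates, are log2 fold changes.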

Q: Which log2 fold change does the source give for GEMIN8 (UniProt Q9NWZ8) here?
A: inactive: -0.105

Q: With GDF15 (UniProt Q99988) as the target, how does the log2 fold change read?
A: inactive: -0.02

Q: With FRMD8 (UniProt Q9BZ67) as the target, how does the log2 fold change read?
A: inactive: -0.195

Q: For G6PC3 (UniProt Q9BUM1), which log2 fold change is on record?
A: inactive: 0.027

Q: GAGE1 (UniProt Q13065) was tested. Which log2 fold change did it give?
A: inactive: 0.017

Q: Which log2 fold change does the source give for GDPGP1 (UniProt Q6ZNW5) here?
A: inactive: -0.042

Q: For GCC1 (UniProt Q96CN9), which log2 fold change is on record?
A: inactive: -0.128

Q: With GANC (UniProt Q8TET4) as the target, how does the log2 fold change read?
A: inactive: 0.093

What follows are targets tested with Cc1nc(Nc2ncc(C(=O)Nc3c(C)cccc3Cl)s2)cc(N2CCN(CCO)CC2)n1 [dasatinib] in the same assay as above.
How it was run: as §1

Q: How did the log2 fold change turn out when GCG (UniProt P01275) was run?
A: inactive: 2.22

Q: With GDF15 (UniProt Q99988) as the target, how does the log2 fold change read?
A: inactive: 0.289

Q: GCFC2 isoform 3 (UniProt P16383) was tested. Which log2 fold change did it give?
A: inactive: -0.068

Q: With GDPGP1 (UniProt Q6ZNW5) as the target, how does the log2 fold change read?
A: inactive: 0.009

Q: GABPB1 isoform 3 (UniProt Q06547) was tested. Which log2 fold change did it give?
A: inactive: -0.146

Each target was assayed with Cc1ncc(-c2ccnc(Nc3ccc(S(C)(=O)=O)cc3)n2)n1C(C)C in the same assay as above.
How it was run: as §1

Q: With GEMIN8 (UniProt Q9NWZ8) as the target, how does the log2 fold change read?
A: inactive: -0.186

Q: GDF15 (UniProt Q99988) was tested. Which log2 fold change did it give?
A: inactive: -0.163

Q: With FRMD8 (UniProt Q9BZ67) as the target, how does the log2 fold change read?
A: inactive: -0.14

Q: With G6PC3 (UniProt Q9BUM1) as the target, how does the log2 fold change read?
A: inactive: 0.092

Q: How did the log2 fold change turn out when GAGE1 (UniProt Q13065) was run?
A: inactive: -0.195

Q: For GDPGP1 (UniProt Q6ZNW5), which log2 fold change is on record?
A: inactive: -0.081

Q: With GCC1 (UniProt Q96CN9) as the target, how does the log2 fold change read?
A: inactive: 0.007

Q: Which log2 fold change does the source give for GANC (UniProt Q8TET4) here?
A: inactive: 0.24

These targets were tested with Cn1cc(-c2ccc3c(c2)CCN3C(=O)Cc2cccc(C(F)(F)F)c2)c2c(N)ncnc21 in the same assay as above.
How it was run: as §1

Q: GEMIN8 (UniProt Q9NWZ8) was tested. Which log2 fold change did it give?
A: inactive: -0.202

Q: With FOXJ2 (UniProt Q9P0K8) as the target, how does the log2 fold change read?
A: inactive: 0.098

Q: How did the log2 fold change turn out when GCG (UniProt P01275) was run?
A: inactive: -0.22

Q: For GDF15 (UniProt Q99988), which log2 fold change is on record?
A: inactive: -0.149

Q: For FRMD8 (UniProt Q9BZ67), which log2 fold change is on record?
A: inactive: -0.33

Q: FRYL isoform 2 (UniProt O94915) was tested. Which log2 fold change did it give?
A: inactive: -0.08

Q: With GDPGP1 (UniProt Q6ZNW5) as the target, how does the log2 fold change read?
A: inactive: -0.253

Q: FYTTD1 (UniProt Q96QD9) was tested. Which log2 fold change did it give?
A: inactive: -0.156

Q: For GABPB1 isoform 3 (UniProt Q06547), which log2 fold change is on record?
A: inactive: 0.372

Q: With FRMPD3 (UniProt Q5JV73) as the target, how does the log2 fold change read?
A: inactive: 0.064

The targets below were run with Cn1cc(-c2ccc3nnc(C(F)(F)c4ccc5ncccc5c4)n3n2)cn1 in the same assay as above.
How it was run: as §1

Q: How did the log2 fold change turn out when GAL (UniProt P22466) was run?
A: inactive: -0.084

Q: How did the log2 fold change turn out when GDF15 (UniProt Q99988) was run?
A: inactive: -0.188

Q: How did the log2 fold change turn out when GDI2 (UniProt Q5SX86) was run?
A: inactive: 0.178

Q: FRYL isoform 2 (UniProt O94915) was tested. Which log2 fold change did it give?
A: inactive: -0.081

Q: For FRAT1 (UniProt Q92837), which log2 fold change is on record?
A: inactive: -0.161

Q: For GGACT (UniProt Q9BVM4), which log2 fold change is on record?
A: inactive: -0.06

Q: How did the log2 fold change turn out when GCC1 (UniProt Q96CN9) was run?
A: inactive: 0.089

Q: Which log2 fold change does the source give for FRMPD3 (UniProt Q5JV73) here?
A: inactive: 0.382

The targets below were run with Cn1cncc1[C@@](N)(c1ccc(Cl)cc1)c1ccc2c(c1)c(-c1cccc(Cl)c1)cc(=O)n2C [tipifarnib] in the same assay as above.
How it was run: as §1

Q: How did the log2 fold change turn out when GEMIN8 (UniProt Q9NWZ8) was run?
A: inactive: -0.257

Q: With GDF15 (UniProt Q99988) as the target, how does the log2 fold change read?
A: inactive: 0.102

Q: Which log2 fold change does the source give for GDPD3 (UniProt Q7L5L3) here?
A: inactive: 0.015

Q: How did the log2 fold change turn out when GANAB (UniProt Q14697) was run?
A: inactive: 0.249

Q: G6PC3 (UniProt Q9BUM1) was tested. Which log2 fold change did it give?
A: inactive: 0.251

Q: Which log2 fold change does the source give for GFOD1 (UniProt Q9NXC2) here?
A: inactive: 0.282

Q: With FRYL isoform 2 (UniProt O94915) as the target, how does the log2 fold change read?
A: inactive: 0.049

Q: GCFC2 isoform 3 (UniProt P16383) was tested. Which log2 fold change did it give?
A: inactive: 0.026

Q: How did the log2 fold change turn out when GDPGP1 (UniProt Q6ZNW5) was run?
A: inactive: -0.158

Q: For GABPB1 isoform 3 (UniProt Q06547), which log2 fold change is on record?
A: inactive: 0.216

What follows are targets tested with FC(F)(F)c1ccc(/C=C/c2nc(COc3ccc(CCCCn4ccnn4)cc3)co2)cc1 [mubritinib] in the same assay as above.
How it was run: as §1

Q: How did the log2 fold change turn out when GDF15 (UniProt Q99988) was run?
A: inactive: -0.025

Q: GANAB (UniProt Q14697) was tested. Which log2 fold change did it give?
A: inactive: 0.071

Q: With G6PC3 (UniProt Q9BUM1) as the target, how does the log2 fold change read?
A: inactive: 0.029

Q: GFM2 (UniProt Q969S9) was tested. Which log2 fold change did it give?
A: inactive: -0.059

Q: For GAGE1 (UniProt Q13065), which log2 fold change is on record?
A: inactive: 0.079

Q: Which log2 fold change does the source give for GDPGP1 (UniProt Q6ZNW5) here?
A: inactive: 0.335

Q: With GEMIN7 (UniProt Q9H840) as the target, how does the log2 fold change read?
A: inactive: 0.07

Q: For G0S2 (UniProt P27469), which log2 fold change is on record?
A: inactive: -0.115

Q: GGACT (UniProt Q9BVM4) was tested. Which log2 fold change did it give?
A: inactive: 0.086

Q: With GFAP isoform 2 (UniProt P14136) as the target, how does the log2 fold change read?
A: inactive: -0.218

Q: Which log2 fold change does the source give for GABPB1 isoform 3 (UniProt Q06547) here?
A: inactive: -0.037

Q: With GAPDH isoform 2 (UniProt P04406) as the target, how does the log2 fold change read?
A: inactive: 0.132
